Reference: paper PMC11374673, “Discovery of isoquinoline sulfonamides as allosteric gyrase inhibitors with activity against fluoroquinolone-resistant bacteria” (Nature Chemistry, 2024)
“And” between values parts separate entries of the source, which are not always exact repeats. Equal values may be shown once. Further values from the same series stand in other lists.

Assays:
E. coli W3110 = experiment: Checkerboard assay with PMBN;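 note: OD600 read after 20 h incubation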
E. coli = experiment: Checkerboard assay LEI-800 with CIP; type: cell-based, Escherichia coli;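 note: bacterial growth read as OD600 after 20 h at 37 °C with shaking, each drug pair tested in triplicate wells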
[1] = Ciprofloxacin 0.78125 nM + PMBN 0 µM
[2] = Ciprofloxacin 0.78125 nM + PMBN 0.5 µM
[3] = Ciprofloxacin 0.78125 nM + PMBN 1 µM
[4] = Ciprofloxacin 0.78125 nM + PMBN 2 µM
[5] = Ciprofloxacin 0.78125 nM + PMBN 4 µM
[6] = Ciprofloxacin 0.78125 nM + PMBN 8 µM
[7] = Ciprofloxacin 0.78125 nM + PMBN 16 µM
[8] = Ciprofloxacin 0.78125 nM + PMBN 32 µM
[9] = Ciprofloxacin 1.5625 nM + PMBN 0 µM
[10] = Ciprofloxacin 1.5625 nM + PMBN 0.5 µM
[11] = Ciprofloxacin 1.5625 nM + PMBN 16 µM
[12] = Ciprofloxacin 1.5625 nM + PMBN 32 µM

`O=C(O)c1cn(C2CC2)c2cc(N3CCNCC3)c(F)cc2c1=O` [CIP, ciprofloxacin, reference compound] was tested, and the “checkerboard plate reading, Average values” (E. coli W3110; [1]) was 0.957, the “checkerboard plate reading, replicate wells” value (E. coli W3110; [1]) was 0.9367 and 0.9639 and 0.9706 and the “checkerboard plate reading, Average values” (E. coli W3110; [2]) was 0.9715. For the same molecule, the “checkerboard plate reading, replicate wells” value (E. coli W3110; [2]) was 0.9788 and 0.9845 and 0.9512, the “checkerboard plate reading, Average values” (E. coli W3110; [3]) was 0.9356 and the “checkerboard plate reading, replicate wells” value (E. coli W3110; [3]) was 1.0018 and 0.8473 and 0.9577. The “checkerboard plate reading, Average values” (E. coli W3110; [4]) was 0.8703, the “checkerboard plate reading, replicate wells” value (E. coli W3110; [4]) was 0.8441 and 0.8423 and 0.9244 and the “checkerboard plate reading, Average values” (E. coli W3110; [5]) was 0.7438. The “checkerboard plate reading, replicate wells” value (E. coli W3110; [5]) was 0.7558 and 0.7462 and 0.7295, the “checkerboard plate reading, Average values” (E. coli W3110; [6]) was 0.6726 and the “checkerboard plate reading, replicate wells” value (E. coli W3110; [6]) was 0.7607 and 0.6104 and 0.6467. For the same molecule, the “checkerboard plate reading, Average values” (E. coli W3110; [7]) was 0.6456, the “checkerboard plate reading, replicate wells” value (E. coli W3110; [7]) was 0.7065 and 0.5703 and 0.66 and the “checkerboard plate reading, Average values” (E. coli W3110; [8]) was 0.7735. For the same molecule, the “checkerboard plate reading, replicate wells” value (E. coli W3110; [8]) was 0.7014 and 0.734 and 0.885, the “checkerboard plate reading, Average values” (E. coli W3110; [9]) was 0.9523 and the “checkerboard plate reading, replicate wells” value (E. coli W3110; [9]) was 0.9687 and 0.952 and 0.9362. For the same molecule, the “checkerboard plate reading, Average values” (E. coli W3110; [10]) was 0.8825, the “checkerboard plate reading, replicate wells” value (E. coli W3110; [10]) was 0.8916 and 0.852 and 0.9039 and the “checkerboard plate reading, replicate wells” value (E. coli W3110; Ciprofloxacin 1.5625 nM + PMBN 1 µM) was 0.8788 and 0.9051 and 0.888. For the same molecule, the “checkerboard plate reading, replicate wells” value (E. coli W3110; Ciprofloxacin 1.5625 nM + PMBN 2 µM) was 0.8967 and 0.8865 and 0.8902, the “checkerboard plate reading, replicate wells” value (E. coli W3110; Ciprofloxacin 1.5625 nM + PMBN 4 µM) was 0.7453 and 0.7124 and 0.7204 and the “checkerboard plate reading, replicate wells” value (E. coli W3110; Ciprofloxacin 1.5625 nM + PMBN 8 µM) was 0.6289 and 0.6252 and 0.6368. For the same molecule, the “checkerboard plate reading, Average values” (E. coli W3110; [11]) was 0.7074, the “checkerboard plate reading, replicate wells” value (E. coli W3110; [11]) was 0.7012 and 0.659 and 0.7621 and the “checkerboard plate reading, Average values” (E. coli W3110; [12]) was 0.6964. The “checkerboard plate reading, replicate wells” value (E. coli W3110; [12]) was 0.6775 and 0.7178 and 0.694, the “checkerboard plate reading, replicate wells” value (E. coli W3110; Ciprofloxacin 3.125 nM + PMBN 0 µM) was 0.938 and 0.926 and 0.9194 and the “checkerboard plate reading, replicate wells” value (E. coli W3110; Ciprofloxacin 3.125 nM + PMBN 0.5 µM) was 0.9104 and 0.8556 and 0.8509. The “checkerboard plate reading, replicate wells” value (E. coli W3110; Ciprofloxacin 3.125 nM + PMBN 1 µM) was 0.8735 and 0.8204 and 0.8531, the “checkerboard plate reading, replicate wells” value (E. coli W3110; Ciprofloxacin 3.125 nM + PMBN 2 µM) was 0.8169 and 0.8363 and 0.8177 and the “checkerboard plate reading, replicate wells” value (E. coli W3110; Ciprofloxacin 3.125 nM + PMBN 4 µM) was 0.7538 and 0.7307. For the same molecule, the “checkerboard plate reading, replicate wells” value (E. coli W3110; Ciprofloxacin 3.125 nM + PMBN 8 µM) was 0.6785 and 0.6508 and 0.6687, the “checkerboard plate reading, replicate wells” value (E. coli W3110; Ciprofloxacin 3.125 nM + PMBN 16 µM) was 0.6817 and 1.0386 and 0.7026 and the “checkerboard plate reading, replicate wells” value (E. coli W3110; Ciprofloxacin 3.125 nM + PMBN 32 µM) was 0.6673 and 0.6657 and 0.456. For the same molecule, the “checkerboard plate reading, replicate wells” value (E. coli W3110; Ciprofloxacin 6.25 nM + PMBN 0 µM) was 0.8797 and 0.8482 and 0.8545, the “checkerboard plate reading, replicate wells” value (E. coli W3110; Ciprofloxacin 6.25 nM + PMBN 0.5 µM) was 0.8295 and 0.7868 (2×) and the “checkerboard plate reading, replicate wells” value (E. coli W3110; Ciprofloxacin 6.25 nM + PMBN 1 µM) was 0.8045 and 0.7855 and 0.8082. The “checkerboard plate reading, replicate wells” value (E. coli W3110; Ciprofloxacin 6.25 nM + PMBN 2 µM) was 0.8079 and 0.7912 and 0.8017, the “checkerboard plate reading, replicate wells” value (E. coli W3110; Ciprofloxacin 6.25 nM + PMBN 4 µM) was 0.7505 and 0.7264 and 0.7098 and the “checkerboard plate reading, replicate wells” value (E. coli W3110; Ciprofloxacin 6.25 nM + PMBN 8 µM) was 0.6878 and 0.6137 and 0.6587. The “checkerboard plate reading, replicate wells” value (E. coli W3110; Ciprofloxacin 6.25 nM + PMBN 16 µM) was 0.6069 and 0.5772 and 0.5746, the “checkerboard plate reading, replicate wells” value (E. coli W3110; Ciprofloxacin 6.25 nM + PMBN 32 µM) was 0.5669 and 0.4725 and 0.4204 and the “checkerboard plate reading, replicate wells” value (E. coli W3110; Ciprofloxacin 12.5 nM + PMBN 0 µM) was 0.8762 and 0.8322 and 0.8129. For the same molecule, the “checkerboard plate reading, replicate wells” value (E. coli W3110; Ciprofloxacin 12.5 nM + PMBN 0.5 µM) was 0.8025 and 0.7009 and 0.703, the “checkerboard plate reading, replicate wells” value (E. coli W3110; Ciprofloxacin 12.5 nM + PMBN 1 µM) was 0.7527 and 0.7343 and 0.7035 and the “checkerboard plate reading, replicate wells” value (E. coli W3110; Ciprofloxacin 12.5 nM + PMBN 2 µM) was 0.7224 and 0.7157 and 0.731. The “checkerboard plate reading, replicate wells” value (E. coli W3110; Ciprofloxacin 12.5 nM + PMBN 4 µM) was 0.6942 and 0.6727 and 0.6431, the “checkerboard plate reading, replicate wells” value (E. coli W3110; Ciprofloxacin 12.5 nM + PMBN 8 µM) was 0.5427 and 0.5348 and 0.6272 and the “checkerboard plate reading, replicate wells” value (E. coli W3110; Ciprofloxacin 12.5 nM + PMBN 16 µM) was 0.6321 and 0.7181 and 0.676. For the same molecule, the “checkerboard plate reading, replicate wells” value (E. coli W3110; Ciprofloxacin 12.5 nM + PMBN 32 µM) was 0.5556 and 0.461 and 0.4884, the “checkerboard plate reading, replicate wells” value (E. coli W3110; Ciprofloxacin 25 nM + PMBN 0 µM) was 0.4777 and 0.4961 and 0.4937 and the “checkerboard plate reading, replicate wells” value (E. coli W3110; Ciprofloxacin 25 nM + PMBN 0.5 µM) was 0.4579 and 0.5843 and 0.5181. For the same molecule, the “checkerboard plate reading, replicate wells” value (E. coli W3110; Ciprofloxacin 25 nM + PMBN 1 µM) was 0.463 and 0.5493 and 0.476, the “checkerboard plate reading, replicate wells” value (E. coli W3110; Ciprofloxacin 25 nM + PMBN 2 µM) was 0.4576 and 0.4326 and 0.4258 and the “checkerboard plate reading, replicate wells” value (E. coli W3110; Ciprofloxacin 25 nM + PMBN 4 µM) was 0.4811 and 0.4544 and 0.3164. For the same molecule, the “checkerboard plate reading, replicate wells” value (E. coli W3110; Ciprofloxacin 25 nM + PMBN 8 µM) was 0.2629 and 0.2525 and 0.2469, the “checkerboard plate reading, replicate wells” value (E. coli W3110; Ciprofloxacin 25 nM + PMBN 16 µM) was 0.2049 and 0.1903 and 0.1929 and the “checkerboard plate reading, replicate wells” value (E. coli W3110; Ciprofloxacin 25 nM + PMBN 32 µM) was 0.2173 and 0.2055 and 0.208. For the same molecule, the “checkerboard plate reading, replicate wells” value (E. coli W3110; Ciprofloxacin 50 nM + PMBN 0 µM) was 0.2022 and 0.1983 and 0.1968, the “checkerboard plate reading, replicate wells” value (E. coli W3110; Ciprofloxacin 50 nM + PMBN 0.5 µM) was 0.1996 and 0.2121 (2×) and the “checkerboard plate reading, replicate wells” value (E. coli W3110; Ciprofloxacin 50 nM + PMBN 1 µM) was 0.2047 and 0.2226 and 0.2136. The “checkerboard plate reading, replicate wells” value (E. coli W3110; Ciprofloxacin 50 nM + PMBN 2 µM) was 0.1725 and 0.1735 and 0.1853, the “checkerboard plate reading, replicate wells” value (E. coli W3110; Ciprofloxacin 50 nM + PMBN 4 µM) was 0.1719 and 0.1646 and 0.167 and the “checkerboard plate reading, replicate wells” value (E. coli W3110; Ciprofloxacin 50 nM + PMBN 8 µM) was 0.1715 and 0.1645 and 0.1653. The “checkerboard plate reading, replicate wells” value (E. coli W3110; Ciprofloxacin 50 nM + PMBN 16 µM) was 0.1641 and 0.1738 and 0.1676, the “checkerboard plate reading, replicate wells” value (E. coli W3110; Ciprofloxacin 50 nM + PMBN 32 µM) was 0.1655 and 0.1715 and 0.1843 and the “checkerboard plate reading, replicate wells” value (E. coli; Ciprofloxacin 3.125 nM + LEI-800 0 µM) was 0.8619 and 0.7974 and 0.7155. For the same molecule, the “checkerboard plate reading, replicate wells” value (E. coli; Ciprofloxacin 3.125 nM + LEI-800 0.1 µM) was 0.6658 and 0.7673 and 0.8284, the “checkerboard plate reading, replicate wells” value (E. coli; Ciprofloxacin 3.125 nM + LEI-800 0.2 µM) was 0.6992 and 0.6309 and 0.75 and the “checkerboard plate reading, replicate wells” value (E. coli; Ciprofloxacin 3.125 nM + LEI-800 0.4 µM) was 0.6077 and 0.6127 and 0.6589. The “checkerboard plate reading, replicate wells” value (E. coli; Ciprofloxacin 3.125 nM + LEI-800 0.8 µM) was 0.6013 and 0.5989 and 0.5487, the “checkerboard plate reading, replicate wells” value (E. coli; Ciprofloxacin 3.125 nM + LEI-800 3.1 µM) was 0.2711 and 0.2599 and 0.2829 and the “checkerboard plate reading, replicate wells” value (E. coli; Ciprofloxacin 3.125 nM + LEI-800 6.2 µM) was 0.1396 and 0.1415 and 0.1422. The “checkerboard plate reading, replicate wells” value (E. coli; Ciprofloxacin 6.25 nM + LEI-800 0 µM) was 0.8794 and 0.78 and 0.7521, the “checkerboard plate reading, replicate wells” value (E. coli; Ciprofloxacin 6.25 nM + LEI-800 0.1 µM) was 0.7218 and 0.6826 and 0.6655 and the “checkerboard plate reading, replicate wells” value (E. coli; Ciprofloxacin 6.25 nM + LEI-800 0.2 µM) was 0.6387 and 0.609 and 0.6296. For the same molecule, the “checkerboard plate reading, replicate wells” value (E. coli; Ciprofloxacin 6.25 nM + LEI-800 0.4 µM) was 0.6391 and 0.6496 and 0.6659, the “checkerboard plate reading, replicate wells” value (E. coli; Ciprofloxacin 6.25 nM + LEI-800 0.8 µM) was 0.6019 and 0.5603 and 0.5569 and the “checkerboard plate reading, replicate wells” value (E. coli; Ciprofloxacin 6.25 nM + LEI-800 3.1 µM) was 0.2628 and 0.3171 and 0.2725. For the same molecule, the “checkerboard plate reading, replicate wells” value (E. coli; Ciprofloxacin 6.25 nM + LEI-800 6.2 µM) was 0.1627 and 0.1452 and 0.1544, the “checkerboard plate reading, replicate wells” value (E. coli; Ciprofloxacin 12.5 nM + LEI-800 0 µM) was 0.8456 and 0.8481 and 0.756 and the “checkerboard plate reading, replicate wells” value (E. coli; Ciprofloxacin 12.5 nM + LEI-800 0.1 µM) was 0.6961 and 0.6864 and 0.6843. For the same molecule, the “checkerboard plate reading, replicate wells” value (E. coli; Ciprofloxacin 12.5 nM + LEI-800 0.2 µM) was 0.6231 and 0.6423, the “checkerboard plate reading, replicate wells” value (E. coli; Ciprofloxacin 12.5 nM + LEI-800 0.8 µM) was 0.6408 and 0.6065 and 0.5671 and the “checkerboard plate reading, replicate wells” value (E. coli; Ciprofloxacin 12.5 nM + LEI-800 3.1 µM) was 0.2892 and 0.2347 and 0.2421. The “checkerboard plate reading, replicate wells” value (E. coli; Ciprofloxacin 12.5 nM + LEI-800 6.2 µM) was 0.1324 and 0.1416 and 0.1522.
